# Experimental data taken from the supplement of paper PMC10689618.
# Where a name gives a salt, the structure may show the parent alone. The list shows a part of the results. Many values rest on one well or one pass, so single values are uncertain.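 Labelled rat cortical synaptosomes were engulfed by primary human fetal astrocytes. Engulfment equaled a red/green ratio, corrected for calcein live-cell signal and normalized to the plate median. Compounds were toxic when calcein dropped over 30%, and reduced phagocytosis when below 70% of the median above 5 µM.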
# Tests used:
# Human fetal astrocytes [1] = assay: loss of total cells relative to no-compound high-control median (toxicity); higher = more toxic (fewer cells); conditions: 24 h
# Human fetal astrocytes [2] = assay: synaptosome phagocytosis (pHrodo/calcein intensity ratio) relative to plate median of data wells; higher = more phagocytosis; conditions: 24 h
Structure (SMILES),loss of total cells (Human fetal astrocytes [1]; 1.39 µM) [%],loss of total cells (Human fetal astrocytes [1]; 2.78 µM) [%],loss of total cells (Human fetal astrocytes [1]; 5.56 µM) [%],loss of total cells (Human fetal astrocytes [1]; 11.11 µM) [%],loss of total cells (Human fetal astrocytes [1]; 22.22 µM) [%],synaptosome phagocytosis (Human fetal astrocytes [2]; 1.39 µM) [%],synaptosome phagocytosis (Human fetal astrocytes [2]; 2.78 µM) [%],synaptosome phagocytosis (Human fetal astrocytes [2]; 5.56 µM) [%],synaptosome phagocytosis (Human fetal astrocytes [2]; 11.11 µM) [%],synaptosome phagocytosis (Human fetal astrocytes [2]; 22.22 µM) [%]
NCCOB(c1ccccc1)c1ccccc1,-27.9,-16.2,-15.4,-10.1,-11.1,125,98.5,122,110,118
O=c1cc(-c2ccccc2)oc2cc(O)c(O)cc12,-5.7,-3.2,11,8.8,27.4,76.7,114,103,121,133
Oc1c(Cl)cc(Cl)c2cccnc12,-25.8,18.3,3.7,50.2,27.1,91.5,93.7,55.6,72.5,33.4
CCCC1O[C@@H]2C[C@H]3[C@@H]4CCC5=CC(=O)C=C[C@]5(C)[C@H]4[C@@H](O)C[C@]3(C)[C@]2(C(=O)CO)O1 (stereo not given in full),0.3,-24.7,-13.9,-25.1,-36.8,115,140,102,106,112
COc1ccc(-c2cc(=O)c3c(O)c(OC)c(OC)c(OC)c3o2)cc1OC,-18,-1.1,0,6.8,4.4,94,96.4,64,87.3,69.4
CC(C)(C)NCC(O)c1ccc(O)c(CO)c1 (stereo not given) [Salbutamol],3.9,-25.4,-7.7,-8.9,9.4,114,112,112,97.3,102
COC(=O)[C@H](Cc1ccccc1)NC(=O)[C@@H](N)CC(=O)O,6.6,-26.5,11.1,-13.3,21.5,110,120,127,126,147
C[C@]12CCC(=O)C=C1CC[C@@H]1[C@@H]2[C@@H](O)C[C@@]2(C)[C@H]1CC[C@]2(O)C(=O)CO,-9.1,-21,-0.3,-12.5,9.1,109,104,119,146,110
O=c1ccn([C@@H]2O[C@H](COP(=O)(O)OP(=O)(O)OP(=O)(O)O)[C@@H](O)[C@H]2O)c(=O)[nH]1,-13.9,-1.8,0.7,-2,18.5,136,135,120,112,122
COc1cc(-c2coc3cc(OC)c(OC)c(OC)c3c2=O)cc(OC)c1OC,29.3,10.6,-19.1,44.5,6.3,136,120,101,161,112
CC(C)NCC(O)COc1cccc2[nH]ccc12 (stereo not given) [Pindolol],5.6,-13.9,-20.9,-1.4,40.4,76.1,74.3,94.6,106,104
O=C(O[C@H]1CN2CCC1CC2)N1CCc2ccccc2[C@@H]1c1ccccc1,-46,-34.9,-0.6,17.4,10.9,79.8,106,95.7,85.4,107
CN(C)C(=N)NC(=N)N,-4.1,-8.2,-21.3,-13.3,11.3,120,112,83.1,97.8,101
COc1ccc(C(=O)CC(=O)O)c2c1C=CC(C)(C)O2,-9,-6.1,-8.8,4.7,0,99.2,91.8,122,90.3,104
CC1(C)NC(=O)N(c2ccc([N+](=O)[O-])c(C(F)(F)F)c2)C1=O [Nilutamide],-16.6,-7.6,7.5,-12.5,2.3,105,92.5,88.8,122,81.7
CC(=O)OCC(=O)[C@@]1(O)[C@H](C)C[C@H]2[C@@H]3CCC4=CC(=O)C=C[C@]4(C)[C@@]3(F)[C@@H](O)C[C@@]21C,0.9,-41.7,-23,-25.1,-15.5,93.7,106,113,106,93.5
NC[C@@H]1O[C@H](O[C@H]2[C@@H](O)[C@H](O[C@@H]3[C@@H](O)[C@H](N)C[C@H](N)[C@H]3O[C@H]3O[C@H](CN)[C@@H](O)[C@H](O)[C@H]3N)O[C@@H]2CO)[C@H](N)[C@@H](O)[C@@H]1O,-10.4,-15.9,-14.6,-9.5,-13.1,78.4,124,81.8,108,110
COCCCOc1ccnc(C[S+]([O-])c2nc3ccccc3[nH]2)c1C (stereo not given),5.4,14,9.2,-9,15.9,126,84.9,110,115,124
Cc1ccc2c(c1)CC[C@H]1CC(=O)CC[C@]21C,-12,0,37.4,-14.2,14.4,105,94.9,139,86.1,132
C[C@@H]1C/C=C/C=C/C=C/C=C/[C@H](O[C@@H]2O[C@H](C)[C@@H](O)[C@H](N)[C@@H]2O)C[C@@H]2O[C@](O)(C[C@@H](O)C[C@H]3O[C@@H]3/C=C/C(=O)O1)C[C@H](O)[C@H]2C(=O)O,-50,-30.2,0,-16.7,1.6,98.5,104,98.1,83.4,102
CCOC(=O)c1ccc(O)cc1,-21.6,-10.1,-1.5,-9.4,9.6,106,101,104,110,110

Structure (SMILES),loss of total cells (Human fetal astrocytes [1]; 1.39 µM) [%],loss of total cells (Human fetal astrocytes [1]; 2.78 µM) [%],loss of total cells (Human fetal astrocytes [1]; 5.56 µM) [%],loss of total cells (Human fetal astrocytes [1]; 11.11 µM) [%],loss of total cells (Human fetal astrocytes [1]; 22.22 µM) [%],synaptosome phagocytosis (Human fetal astrocytes [2]; 1.39 µM) [%],synaptosome phagocytosis (Human fetal astrocytes [2]; 2.78 µM) [%],synaptosome phagocytosis (Human fetal astrocytes [2]; 5.56 µM) [%],synaptosome phagocytosis (Human fetal astrocytes [2]; 11.11 µM) [%],synaptosome phagocytosis (Human fetal astrocytes [2]; 22.22 µM) [%]
COc1cc(C(=O)NCc2ccc(OCCN(C)C)cc2)cc(OC)c1OC,0,4.6,4.5,-31.3,2.8,72,109,115,127,121
CC(=O)O[C@]1(C(C)=O)CC[C@H]2[C@@H]3C=C(Cl)C4=CC(=O)CC[C@]4(C)[C@H]3CC[C@@]21C,-47.6,27,-9.9,43,1.6,106,153,112,177,98.8
CCCCC[C@H](CC(=O)NO)C(=O)N[C@H](C(=O)N1CCC[C@H]1CO)C(C)C [Actinonin],-19.9,13.3,-19.1,26.5,-10,91.9,155,75.8,89.7,105
O=C1CC[C@]23/C=C/C(=O)NCCCCNCCCNC(=O)/C=C/c4ccc(c2c4)O[C@@H]3C1,25.7,5.3,-13,54.2,28.5,95.1,106,95.5,125,102
COc1cc2c(cc1OC)C(=O)C(CC1CCN(Cc3ccccc3)CC1)C2 (stereo not given) [Donepezil],-29.8,-28.6,-9.3,39,-5.3,91.2,91.2,94.1,146,102
Nc1nc(/C(=C/CC(=O)O)C(=O)N[C@@H]2C(=O)N3C(C(=O)O)=CCS[C@H]23)cs1,-41.1,-25.4,1.9,44.3,1.6,99.2,113,105,131,124
CC1=CCCC(C)=CCC(C)(C)C=CC1 [HUMULENE (alpha)],-18.9,4.7,-4.4,12.8,10.4,96.9,124,116,98.8,118
COc1ccc(-c2c(O)c3c(OC)c4c(cc3oc2=O)OC(C)(C)C=C4)cc1,31.5,17.9,0.8,35.5,-0.4,127,108,81.4,143,116
CCC(=O)OCC(=O)[C@@]1(OC(=O)CC)[C@@H](C)C[C@H]2[C@@H]3CCC4=CC(=O)C=C[C@]4(C)[C@@]3(F)[C@@H](O)C[C@@]21C,-26.6,31,3.1,44.9,7.8,84.1,113,80.1,135,82.2
CCN(CC)CCOC(=O)c1ccc(N)cc1 [Procaine hydrochloride],30,-16.6,-23,-8.9,7.6,116,122,146,99.5,104
Nc1ccc(/N=N/c2ccccc2)c(N)n1,0.8,-4.6,14.7,16.4,18.7,110,102,94.5,42.3,46.5
COc1ccc([C@H]2Oc3cc(OC)cc(OC)c3C[C@H]2O)cc1,-9.8,6,30.5,3.9,-4.1,60.2,126,108,100,90.8
COc1cc2c(cc1OC)Cc1cc(OC)c(OC)cc1Cc1cc(OC)c(OC)cc1C2,-20.5,14.1,2.2,2.7,15.6,114,137,126,102,122
COc1ncnc(NS(=O)(=O)c2ccc(N)cc2)c1OC,9.1,13.1,-21.3,-10.2,-2.3,92.8,94.2,128,105,127
COc1ccc(-c2cc(=O)c3c(OC)c(OC)c(OC)c(OC)c3o2)cc1OC [Nobiletin],-4.9,5.4,19,19.6,10.4,110,107,113,111,61.9
COc1ccc(-c2oc3ccccc3c(=O)c2O)cc1OC,-14.8,1.1,5.1,25,17.8,79.4,93.2,106,117,97.4
CC[C@H]1OC(=O)[C@H](C)[C@@H](O[C@H]2C[C@@](C)(OC)[C@@H](O)[C@H](C)O2)[C@H](C)[C@@H](O[C@@H]2O[C@H](C)C[C@H](N(C)C)[C@H]2O)[C@](C)(OC)C[C@@H](C)C(=O)[C@H](C)[C@@H](O)[C@]1(C)O,-4.1,-5.8,18.3,-14.1,18.7,115,115,128,114,111
Cc1c(NC(=O)c2cccnc2)c(=O)n(-c2ccccc2)n1C,-0.4,5.4,23.9,1.3,7.6,115,118,115,118,133
CCOC(=O)C1=C(COCCN)NC(C)=C(C(=O)OC)C1c1ccccc1Cl (stereo not given),-31.5,-46,-8.7,-17.4,-9,72.5,84.4,112,69,103
CC(=O)O[C@H]1C[C@@H](OC(C)=O)C(C)(C)[C@@H]2CC(=O)[C@]3(C)[C@H](CC[C@@]4(C)[C@H](c5ccoc5)OC(=O)[C@H]5O[C@]543)[C@@]12C,-1.1,2.7,45.8,-10.3,1.1,108,115,146,95,119

# Molecules shown so far containing fluorine:
Structure (SMILES),loss of total cells (Human fetal astrocytes [1]; 1.39 µM) [%],loss of total cells (Human fetal astrocytes [1]; 2.78 µM) [%],loss of total cells (Human fetal astrocytes [1]; 5.56 µM) [%],loss of total cells (Human fetal astrocytes [1]; 11.11 µM) [%],loss of total cells (Human fetal astrocytes [1]; 22.22 µM) [%],synaptosome phagocytosis (Human fetal astrocytes [2]; 1.39 µM) [%],synaptosome phagocytosis (Human fetal astrocytes [2]; 2.78 µM) [%],synaptosome phagocytosis (Human fetal astrocytes [2]; 5.56 µM) [%],synaptosome phagocytosis (Human fetal astrocytes [2]; 11.11 µM) [%],synaptosome phagocytosis (Human fetal astrocytes [2]; 22.22 µM) [%]
CC1(C)NC(=O)N(c2ccc([N+](=O)[O-])c(C(F)(F)F)c2)C1=O [Nilutamide],-16.6,-7.6,7.5,-12.5,2.3,105,92.5,88.8,122,81.7
CC(=O)OCC(=O)[C@@]1(O)[C@H](C)C[C@H]2[C@@H]3CCC4=CC(=O)C=C[C@]4(C)[C@@]3(F)[C@@H](O)C[C@@]21C,0.9,-41.7,-23,-25.1,-15.5,93.7,106,113,106,93.5
CCC(=O)OCC(=O)[C@@]1(OC(=O)CC)[C@@H](C)C[C@H]2[C@@H]3CCC4=CC(=O)C=C[C@]4(C)[C@@]3(F)[C@@H](O)C[C@@]21C,-26.6,31,3.1,44.9,7.8,84.1,113,80.1,135,82.2
